Data: paper PMC8967291

By UniProt entry, the sequences of proteins in these tests, tags left out.
UniProt P23242: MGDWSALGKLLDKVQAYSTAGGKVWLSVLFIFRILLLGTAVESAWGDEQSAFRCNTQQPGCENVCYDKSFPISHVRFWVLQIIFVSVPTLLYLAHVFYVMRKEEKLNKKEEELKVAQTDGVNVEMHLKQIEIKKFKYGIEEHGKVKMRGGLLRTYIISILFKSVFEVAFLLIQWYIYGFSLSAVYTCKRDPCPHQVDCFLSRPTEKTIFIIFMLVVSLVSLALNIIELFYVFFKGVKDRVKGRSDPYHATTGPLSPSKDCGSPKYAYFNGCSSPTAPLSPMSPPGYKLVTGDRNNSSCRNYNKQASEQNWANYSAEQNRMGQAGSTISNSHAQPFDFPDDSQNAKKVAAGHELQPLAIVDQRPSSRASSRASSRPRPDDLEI
UniProt P63085: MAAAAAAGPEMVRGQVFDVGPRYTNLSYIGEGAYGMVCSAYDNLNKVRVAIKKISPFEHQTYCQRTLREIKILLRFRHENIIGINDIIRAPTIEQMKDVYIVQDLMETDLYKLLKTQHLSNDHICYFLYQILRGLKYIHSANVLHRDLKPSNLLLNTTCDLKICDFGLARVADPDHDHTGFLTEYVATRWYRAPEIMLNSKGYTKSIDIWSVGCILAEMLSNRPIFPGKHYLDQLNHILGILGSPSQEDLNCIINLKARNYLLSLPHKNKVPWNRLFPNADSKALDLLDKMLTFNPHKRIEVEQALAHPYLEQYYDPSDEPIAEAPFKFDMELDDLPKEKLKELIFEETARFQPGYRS

Target: connexin 43 (mouse (endogenous in NMVMs)) (UniProt P23242)
Test: affinity purification with mass spectrometry; Co-IP with antibody against Cx43 from RIPA lysates of NMVMs cultured under NG, NLG, HG and HLG conditions; overnight at 4°C, Protein G Agarose, five washes with cell lysis buffer (20 mM Tris-HCl, 150 mM glycerol, 0.5% Triton X-100, 1 mM EDTA, 1 mM EGTA); eluted proteins analysed on a Q Exactive HF Orbitrap

| Substance | binding |
| --- | --- |
| mitogen-activated protein kinase 1 (from UniProt P63085 1-358) (enzyme) | binds |
| MAP2K1 (from UniProt P31938 1-393) (enzyme) | binds |

No constants are given. Whether binding was seen depends on the method and setting. In cells and extracts the contact can be indirect. A yes stands for co-enrichment or nearness to the bait. Other partners may have been found.
